Several values for one entry are separate records, joined by “and”; a condition that tells them apart may be missing. Identical values can stand only once. The whole screen tested about 360,000 compounds, of which about 7,500 (2.1%) were called active. The shares of active, inactive and inconclusive entries below differ from those in the screen. Calls follow the shape of the dose curve; as a rule, active = well fitted inhibition curve with a large enough effect; inconclusive = small, poorly fitted or top-dose-only effect, or effect the other way; inactive = flat fitted curve, though single readings scatter. A potency beside an inconclusive call is a rough fit, not a confirmed value.
Assay: Nrf2 qHTS screen for inhibitors; also: nearly all actives have a fitted effect of over 60% in size
Conditions: A549 ARE-Fluc reporter, luciferase luminescence, 18-24 h; activity change, negative = inhibition: at 46 µM (top of the series)
In short: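 Reporter: ARE-Fluc in A549. Exposure: 18-24 h, 37 °C, 5% CO2, 5% FBS OPTI-MEM. Readouts: fluorescent cytotoxicity (CellTiter-Fluor), then luminescent Nrf2 signal after BugLite.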
% is scaled to controls: 0 for no effect and ±100 for the full control effect; potency is read from the fitted curve at half-maximal effect.

Question: With `Cn1c2ccccc2c(=O)c2ccc(C#Cc3ccc(N)cc3)cc21` as the molecule, how does the Potency read?
Answer: inconclusive: 4.11 µM [falling, full curve]

Question: With `NC(=S)N/N=C/c1ccccc1OCc1cccc(Cl)c1` as the molecule, how does the Potency read?
Answer: inconclusive: 18.4 µM [falling, partial curve]

Question: For `Cc1ccc2c(c1)Sc1c(ccc3ccccc13)N2`, which Potency is on record?
Answer: inconclusive: 29.1 µM [activator, single point]

Question: With `CCN(CC)c1ccc2cc(-c3nnc(-c4ccncc4)o3)c(=O)oc2c1` as the molecule, how does the “activity change, negative = inhibition” value read?
Answer: inactive: 8.05%

Question: For `CCN(CC)CCNC(=O)C1CCN(S(=O)(=O)c2c(C)noc2/C=C/c2ccccc2F)CC1`, which “activity change, negative = inhibition” value is on record?
Answer: inactive: 22.6%

Question: Which Potency does the source give for `O=C(COc1ccccc1[N+](=O)[O-])NNC(=O)Nc1cccc2ccccc12` here?
Answer: inconclusive: 23.1 µM [falling, partial curve, poor fit]

Question: With `COC(=O)C1=C(C)N(Cc2ccco2)C(=O)N[C@H]1c1cccc(C(F)(F)F)c1` as the molecule, how does the Potency read?
Answer: inconclusive: 16.4 µM [falling, single point]

Question: Which Potency does the source give for `COc1ccc(/C=C(\C#N)C(=O)NCC2CCCO2)cc1OC` (stereo unspecified) here?
Answer: inconclusive: 29.1 µM [activator, single point]

Question: With `COC(=O)c1ccccc1NC(=O)N1CCN(S(C)(=O)=O)CC1` as the molecule, how does the Potency read?
Answer: inconclusive: 3.66 µM [activator, full curve, poor fit]

Question: With `CCOc1ccc(C(=O)Nc2ccc(-c3nc4cc(CC)ccc4o3)cc2)cc1` as the molecule, how does the Potency read?
Answer: inconclusive: 6.51 µM [falling, single point]

Question: Which Potency does the source give for `O=C(NCc1cccs1)C(Cc1ccccc1)NS(=O)(=O)c1cccs1` (stereo unspecified) here?
Answer: inconclusive: 25.9 µM [falling, single point]

Question: For `CC(OC(=O)c1ccc2ncsc2c1)C(=O)N(C)C1CCCCC1` (stereo unspecified), which “activity change, negative = inhibition” value is on record?
Answer: inactive: 4.46%

Question: Which Potency does the source give for `COc1cc(C(Nc2ccc3c(c2)OCO3)C(=O)NC2CCCCC2)cc(OC)c1OC` (stereo unspecified) here?
Answer: inconclusive: 8.2 µM [falling, partial curve, poor fit]

Question: Which Potency does the source give for `Cc1ccc(S(=O)(=O)CCC(=O)N(CCCN2CCOCC2)c2nc3ccccc3s2)cc1` here?
Answer: inconclusive: 29.1 µM [activator, single point]

Question: For `CC(C)(C)c1ccc(S(=O)(=O)CCc2ccccn2)cc1`, which Potency is on record?
Answer: inconclusive: 3.26 µM [activator, full curve]

Question: With `CC(C)CCNc1ncnc2c1nnn2Cc1ccccc1Cl` as the molecule, how does the “activity change, negative = inhibition” value read?
Answer: inactive: -13.1%

Question: For `O=C(c1cc2c(=O)[nH]c3ccccc3c2s1)N1CCN(c2ccc(F)cc2)CC1`, which “activity change, negative = inhibition” value is on record?
Answer: inactive: 5.11%

Question: Which Potency does the source give for `N#C/C(=C\c1ccc(OCCN2CCOCC2)cc1)C(=O)Nc1ccccc1` here?
Answer: inconclusive: 18.4 µM [activator, single point]

Question: For `CC(NC(=O)CCn1c(=O)c2cccn2c2ccc(F)cc21)c1ccccc1` (stereo unspecified), which Potency is on record?
Answer: inconclusive: 32.6 µM [activator, single point]

Question: Which Potency does the source give for `COc1cc2c(cc1OC)CN(S(=O)(=O)c1ccc3c(c1)OCCO3)CC2` here?
Answer: inconclusive: 20.6 µM [falling, partial curve, poor fit]

Question: Which Potency does the source give for `C/C(=N\NC(=O)c1cc(Br)ccc1O)c1cccc(NC(=O)c2ccccc2F)c1` here?
Answer: inconclusive: 20.6 µM [activator, single point]

Question: For `Oc1cccc2ccc(Nc3ccccn3)nc12`, which Potency is on record?
Answer: inconclusive: 16.4 µM [falling, partial curve, poor fit]

Question: For `O=C(CCn1c(=O)oc2ccccc21)NCc1ccc2c(c1)OCO2`, which Potency is on record?
Answer: inconclusive: 0.0046 µM [falling, full curve, poor fit]

Question: Which Potency does the source give for `O=C(NCC1CC1)c1ccc2c3n(nc2c1)-c1ccccc1CO3` here?
Answer: inconclusive: 1.3 µM [activator, full curve]

Question: Which Potency does the source give for `c1ccc(C2=NN(c3ccccc3)C(c3ccco3)C2)cc1` (stereo unspecified) here?
Answer: inconclusive: 20.6 µM [activator, single point]

Question: For `Cc1ccc(S(=O)(=O)N2CCN(c3ccccc3)CC2)cc1C(N)=O`, which Potency is on record?
Answer: inconclusive: 25.9 µM [falling, partial curve, poor fit]

Question: Which Potency does the source give for `COc1cccc(OCC(=O)Nc2ccncc2)c1` here?
Answer: inconclusive: 32.6 µM [activator, partial curve, poor fit]

Question: With `COC(=O)C1=C(C(=O)OC)C2(OC1c1cccc(F)c1)C(=O)c1ccccc1C2=O` (stereo unspecified) as the molecule, how does the Potency read?
Answer: inconclusive: 25.9 µM [falling, partial curve, poor fit]

Question: For `Cc1cccc(NC(=O)CN(C)C(=O)c2ccc(N3CCCCCC3)c([N+](=O)[O-])c2)c1C`, which Potency is on record?
Answer: inconclusive: 29.1 µM [falling, single point]

Question: For `CCCc1cc(=O)oc2c(C)c(OCC(=O)Nc3cccnc3)ccc12`, which Potency is on record?
Answer: inconclusive: 20.6 µM [falling, single point]

Question: Which “activity change, negative = inhibition” value does the source give for `O=C(c1coc2ccc(O)c(CN3CCOCC3)c12)C1CC1` here?
Answer: inactive: 3.19%

Question: For `Cc1ccc(C(=O)NCCc2ccc(F)cc2)s1`, which Potency is on record?
Answer: inconclusive: 2.59 µM [activator, full curve]

Question: Which Potency does the source give for `Cc1cc(NC(=O)CS(=O)(=O)c2cn(Cc3ccccc3Cl)c3ccccc23)no1` here?
Answer: active: 25.9 µM

Question: Which “activity change, negative = inhibition” value does the source give for `N#CC1C(=O)NC(c2ccccc2)=CC1c1ccccc1` (stereo unspecified) here?
Answer: inactive: -14.1%

Question: For `C=CCn1c(O)c(N=NC(=O)CNC(=O)/C=C/c2ccc(OC)cc2)c2ccccc21`, which Potency is on record?
Answer: inconclusive: 10.3 µM [activator, partial curve, poor fit]

Question: Which “activity change, negative = inhibition” value does the source give for `COc1cc(-c2nnc(SCC(=O)/C(C#N)=C(\C)N)o2)cc(OC)c1OC` here?
Answer: inactive: -26.7%

Question: For `CSc1ccccc1OCc1cc(C(=O)NCCC2CCCCO2)no1` (stereo unspecified), which Potency is on record?
Answer: inconclusive: 14.6 µM [activator, partial curve, poor fit]

Question: With `Cc1ccc(C(=O)C(C)OC(=O)C2CCN(c3ccc(C(F)(F)F)cn3)CC2)cc1C` (stereo unspecified) as the molecule, how does the Potency read?
Answer: inconclusive: 20.6 µM [falling, single point]

Question: For `COc1cccc2c1Oc1nc(-c3ccccc3)nc(SCC(=O)N3CCCCC3)c1C2`, which “activity change, negative = inhibition” value is on record?
Answer: inactive: -6.23%

Question: With `FC(F)Sc1ccc(-n2cc(-c3ccccc3)[n+]3c2CCC3)cc1` as the molecule, how does the Potency read?
Answer: inconclusive: 8.2 µM [falling, partial curve, poor fit]

Question: With `Cc1nc(SCC(=O)NC2CC2)c2c(C)c(C)sc2n1` as the molecule, how does the Potency read?
Answer: inconclusive: 18.4 µM [falling, partial curve]

Question: With `CCN(c1ccccc1)S(=O)(=O)c1cc(NC(=O)COC(=O)C2CC2)ccc1Cl` as the molecule, how does the Potency read?
Answer: inconclusive: 5.17 µM [activator, full curve]

Question: With `S=C(NCc1ccccc1)Nc1cccc2cnccc12` as the molecule, how does the Potency read?
Answer: active: 2.59 µM

Question: Which “activity change, negative = inhibition” value does the source give for `O=C(CCn1c(=O)c2cccn2c2ccc(F)cc21)NCCc1ccccc1Cl` here?
Answer: inactive: -6.8%

Question: Which Potency does the source give for `CCCOc1ccc(S(=O)(=O)NCc2ccc(OC)cc2)cc1` here?
Answer: inconclusive: 18.4 µM [falling, single point]

Question: For `COc1cccc2cc(NC(=O)C3CCCCC3)c(=O)oc12`, which Potency is on record?
Answer: inconclusive: 0.58 µM [activator, full curve, poor fit]

Question: Which Potency does the source give for `O=C(CCSc1nnc(-c2ccncc2)o1)Nc1cccc(Cl)c1` here?
Answer: active: 20.6 µM

Question: Which Potency does the source give for `CCN(CC)S(=O)(=O)c1ccc2[nH]c(=O)cc(C(=O)Nc3cccc(C(C)=O)c3)c2c1` here?
Answer: inconclusive: 11.6 µM [falling, partial curve]

Question: Which “activity change, negative = inhibition” value does the source give for `COc1ccc2c(c1)Oc1ncn(CCN3CCOCC3)c(=N)c1C2c1ccc(OC)c(OC)c1` (stereo unspecified) here?
Answer: inactive: 4.75%

Question: For `CCN(c1ccc(C)cc1C)S(=O)(=O)c1nnc(NC(=O)C(C)(C)C)s1`, which Potency is on record?
Answer: inconclusive: 29.1 µM [falling, partial curve, poor fit]

Question: With `Cc1ccnc(NCc2cc(C)ccc2O)c1` as the molecule, how does the Potency read?
Answer: inconclusive: 23.1 µM [activator, single point]

Question: For `CCCCOc1nc2ccccc2nc1C(C#N)S(=O)(=O)c1ccccc1` (stereo unspecified), which Potency is on record?
Answer: inconclusive: 23.1 µM [falling, single point]

Question: For `COc1ccc(OC)c(NCc2cccn2-c2nnc(N3CCC(C)CC3)s2)c1`, which Potency is on record?
Answer: inconclusive: 11.6 µM [activator, partial curve]

Question: Which Potency does the source give for `CC(C)(C)OC(=O)N1CCC(c2c(C(=O)Nc3ccc4c(c3)OCCO4)cnn2-c2ccc(F)cc2)CC1` here?
Answer: inconclusive: 2.31 µM [activator, full curve]

Question: With `C/C(=N\NC(=O)c1cccc(S(=O)(=O)N2CCCC2)c1)c1cccs1` as the molecule, how does the Potency read?
Answer: inconclusive: 6.51 µM [activator, single point]

Question: For `O=C(Cc1ccccc1)N/N=C/c1ccc([N+](=O)[O-])s1`, which Potency is on record?
Answer: active: 20.6 µM

Question: With `FC(F)(F)c1ccccc1NC(=S)N1CCN(Cc2ccc3c(c2)OCO3)CC1` as the molecule, how does the Potency read?
Answer: active: 18.4 µM

Question: For `O=C(NCCc1ccccc1)c1ccc2c(c1)N(Cc1ccccc1)C(=O)c1ccccc1S2=O` (stereo unspecified), which “activity change, negative = inhibition” value is on record?
Answer: inactive: -12%

Question: Which Potency does the source give for `Cc1cccc(NC(=O)c2nc[nH]c2C(=O)NC2CCN(C(=O)OC(C)(C)C)CC2)c1` here?
Answer: inconclusive: 7.31 µM [falling, partial curve]

Question: For `O=C(CN1CCN(Cc2ccc3c(c2)OCO3)CC1)Nc1cc(S(=O)(=O)N2CCCC2)ccc1Cl`, which Potency is on record?
Answer: inconclusive: 16.4 µM [falling, single point]

Question: For `Cc1ccc(CCNC(=O)CN2C(=O)COc3ccc(S(=O)(=O)N4CCCCC4)cc32)cc1`, which Potency is on record?
Answer: inconclusive: 29.1 µM [activator, single point] and inconclusive: 16.4 µM [activator, partial curve, poor fit]

Question: Which Potency does the source give for `Cc1ccc(C(CC(=O)NCC2(c3ccccc3)CCCC2)c2ccccc2)c(O)c1` (stereo unspecified) here?
Answer: inconclusive: 23.1 µM [falling, single point]

Question: For `Cn1nc(C(F)(F)F)c(C(=O)Nc2ccc(F)cc2F)c1Sc1cccc(Cl)c1`, which Potency is on record?
Answer: active: 18.4 µM

Question: For `c1csc(-c2nnc(N3CCCCCC3)c3ccccc23)c1`, which “activity change, negative = inhibition” value is on record?
Answer: inactive: 8.66%

Question: Which Potency does the source give for `O=C(Nc1ncc(Br)s1)C1CCCN1S(=O)(=O)c1cccc2cccnc12` (stereo unspecified) here?
Answer: inconclusive: 29.1 µM [falling, partial curve, poor fit]

Question: Which Potency does the source give for `CN(CCO)c1nc(N)c2c(N)nc3c(c2c1C#N)CC(=O)N3Cc1cccs1` here?
Answer: inconclusive: 14.6 µM [falling, partial curve, poor fit]

Reference: PubChem BioAssay AID504444 (National Center for Advancing Translational Sciences (NCATS), 2011)
